# In PubChem BioAssay AID504834 (National Center for Advancing Translational Sciences (NCATS), 2011):
# Out of some 320,000 compounds screened, about 22,000 (6.9%) were called active. This list was built around the results that the source calls inconclusive (neither active nor inactive); the mix of calls is not that of the screen. The call rests on the fitted dose curve; in most records, active means well fitted inhibition curve with a large enough effect; inconclusive means small, poorly fitted or top-dose-only effect, or another doubt; inactive means no such curve, though single readings can be large or run the other way. Potencies of inconclusive entries are doubtful fits and often do not repeat.
# Test: Primary qHTS for delayed death inhibitors of the malarial parasite plastid, 96 hour incubation
# Details: P. falciparum luciferase reporter growth; series mostly up to 28.7 µM
# In short: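 Compounds incubated with erythrocytes infected by luciferase-expressing P. falciparum (2% hematocrit, 0.05% parasitemia final) for 96 hours, 37 C in 5% CO2. Growth inhibition scored as decreased luciferase luminescence.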
# Potency means the concentration at half of the fitted maximal effect.
row,SMILES,Potency
1,CN(C)c1ccccc1C(=O)N1CCC(n2nccc2NC(=O)C2CC2)CC1,inactive
2,CC(C)CN(C(=O)CN1CCN(c2ccccc2F)CC1)c1c(N)n(CC(C)C)c(=O)[nH]c1=O,"inconclusive: 18.5 µM [inhibitor, single point]"
3,O=C(OCc1c(-c2ccccc2)ncc2ccccc12)c1ccc(Cl)cc1Cl,"inconclusive: 13.1 µM [inhibitor, single point]"
4,O=C(NCCc1nc2ccccc2[nH]1)/C(=C/c1ccc2c(c1)OCO2)NC(=O)c1ccc(Cl)cc1Cl,"inconclusive: 8.28 µM [inhibitor, single point]"
5,Cc1cc2c3c(c1)C1(C(=O)N3C(C)(C)CC2C)C(C#N)=C(N)OC2=C1C(=O)CC(C)(C)C2 (stereo not drawn),"inconclusive: 10.4 µM [inhibitor, single point]"
6,COCCN(C(=O)COC(=O)c1cc2c(s1)CCCC2)c1c(N)n(Cc2ccccc2)c(=O)[nH]c1=O,inactive
7,COc1ccc(S(=O)(=O)N2CCN=C2SCc2cccnc2)cc1,inactive
8,NS(=O)(=O)c1ccc(NC(=O)N[C@@H](Cc2ccccc2)C(=O)O)cc1,inactive
9,Cc1cccc(-c2nc3ccccc3c(=O)n2NC(=O)c2cccnc2Cl)c1,inactive
10,O=C(Nc1ccc(S(=O)(=O)N2CCOCC2)cc1)c1ccc(S(=O)(=O)N2CCOCC2)cc1,active: 11.7 µM
11,O=C(OCC(=O)c1c[nH]c2ccccc12)c1cc(S(=O)(=O)N2CCOCC2)ccc1F,"inconclusive: 8.28 µM [inhibitor, single point]"
12,CN(c1ccccc1)S(=O)(=O)c1cccc(NC(=O)CSc2nnc(C3CC3)n2C)c1,"inconclusive: 16.5 µM [inhibitor, single point]"
13,COc1ccc(Cn2c(C)nc3oc4cc(OC)ccc4c(=O)c3c2=O)cc1,"inconclusive: 10.4 µM [inhibitor, partial curve, poor fit]"
14,CN=C(Nc1cc(C)nn1-c1ccccc1)c1ccccc1F,"inconclusive: 11.7 µM [inhibitor, partial curve, poor fit]"
15,COc1ccc(CN(Cc2cccn2C)S(=O)(=O)c2ccc(F)cc2)cc1,"inconclusive: 8.28 µM [inhibitor, partial curve, poor fit]"
16,COc1ccc(S(=O)(=O)N2CCC(C(=O)NC3CC3)CC2)cc1OC,inactive
17,O=C(Nc1ccc(Br)cc1)N1C[C@H]2C[C@@H](C1)c1cccc(=O)n1C2,"inconclusive: 0.0026 µM [inhibitor, full curve, poor fit]"
18,CCOC(=O)N1CCN(C(=O)c2ccc(OC(C)=O)cc2)CC1,"inconclusive: 1.04 µM [inhibitor, full curve]"
19,Cn1cc(S(=O)(=O)N2CCN(c3cccc(Cl)c3)CC2)c(=O)n(C)c1=O,"inconclusive: 4.15 µM [inhibitor, single point]"
20,COc1ccccc1C(=O)N/C(=C\c1cn(C)c2ccccc12)C(=O)NCCCn1ccnc1,"inconclusive: 11.7 µM [inhibitor, single point]"
21,Cc1ccc(C(=O)NCc2ccco2)c(C)c1,active: 11.7 µM
22,CC(c1ccccc1)C1CC(=O)N(c2ccccc2)C1=O (stereo not drawn),"inconclusive: 2.94 µM [inhibitor, partial curve]"
23,Cc1cccnc1NC(=O)c1ccc(Cl)c(S(=O)(=O)N2CCCCCC2)c1,"inconclusive: 11.7 µM [inhibitor, partial curve, poor fit]"

# Five compounds out of the list, sorted by formula weight, low to high:
row,SMILES,Potency
18,CCOC(=O)N1CCN(C(=O)c2ccc(OC(C)=O)cc2)CC1,"inconclusive: 1.04 µM [inhibitor, full curve]"
8,NS(=O)(=O)c1ccc(NC(=O)N[C@@H](Cc2ccccc2)C(=O)O)cc1,inactive
13,COc1ccc(Cn2c(C)nc3oc4cc(OC)ccc4c(=O)c3c2=O)cc1,"inconclusive: 10.4 µM [inhibitor, partial curve, poor fit]"
9,Cc1cccc(-c2nc3ccccc3c(=O)n2NC(=O)c2cccnc2Cl)c1,inactive
23,Cc1cccnc1NC(=O)c1ccc(Cl)c(S(=O)(=O)N2CCCCCC2)c1,"inconclusive: 11.7 µM [inhibitor, partial curve, poor fit]"

# Carrying on:

row,SMILES,Potency
1,CCC(CC)C(=O)Nc1nnc(SCC(=O)NC(C)(C)C)s1,inactive
2,CC(=O)c1ccc(NS(=O)(=O)c2cc3c(cc2C)N(C(C)=O)CCO3)cc1,"inconclusive: 13.1 µM [inhibitor, partial curve]"
3,N#C/C(=C\c1coc2ccccc2c1=O)C(N)=S,"inconclusive: 18.5 µM [inhibitor, single point]"
4,COC(=O)c1ccccc1NC(=O)C1CCCCC1C(=O)O (stereo not drawn),"inconclusive: 8.28 µM [inhibitor, partial curve, poor fit]"
5,COc1ccc(C(=O)NCCSCc2cccc(Cl)c2)cc1OC,"inconclusive: 9.28 µM [inhibitor, partial curve, poor fit]"
6,Cc1cc(NC(=O)CSc2nnc(-c3cccnc3)n2Cc2ccccc2)no1,inactive
7,O=C(Oc1cccc(/C=N/Nc2nc(Nc3ccccc3)nc(N3CCOCC3)n2)c1)c1ccco1,inactive
8,CNC(=O)c1nnn(Cc2ccccc2)c1NC(=O)C(F)(F)F,"inconclusive: 0.233 µM [inhibitor, partial curve, poor fit]"
9,COc1ccc(NS(=O)(=O)c2cccc(C(=O)NNC(=O)NCCCl)c2)cc1,"inconclusive: 1.47 µM [inhibitor, partial curve, poor fit]"
10,CS(=O)(=O)c1ccc2nc(NC(=O)CC3CCCC3)sc2c1,inactive
11,CCOc1ccc(NS(=O)(=O)c2ccc(NC(=S)NC(=O)CC(C)C)cc2)cc1,"inconclusive: 14.7 µM [inhibitor, single point]"
12,CC1(C)CC(=O)c2c(O)cc(OCC(=O)Nc3ccc(CCO)cc3)cc2O1,"inconclusive: 8.28 µM [inhibitor, single point]"
13,Cc1ncoc1C(=O)N1CCCC(C(=O)Nc2cccc(-c3ccc(F)cc3)c2)C1 (stereo not drawn),inactive
14,COc1ccc2cc(/C=C/C(=O)N3CCN(CC(=O)N4CCCCCC4)CC3)ccc2c1,"inconclusive: 1.65 µM [inhibitor, full curve]"
15,O=C1NC(Cc2ccccc2)c2nc3ccc(Cl)cc3c(=O)n2-c2cc(Cl)ccc21 (stereo not drawn),"inconclusive: 20.8 µM [inhibitor, single point]"
16,CCCN(CCC)CCNC(=O)CN1C(=O)COc2ccc(S(=O)(=O)N3CCOCC3)cc21,"inconclusive: 6.57 µM [inhibitor, partial curve, poor fit]"
17,Cc1cc(C)cc(OCC(=O)Nc2ccc(N3CCN(C(=O)c4ccco4)CC3)cc2)c1,"inconclusive: 10.4 µM [inhibitor, partial curve, poor fit]"
18,Cc1nn(-c2ccccc2)c(N2CCCC2)c1C=O,"inconclusive: 8.28 µM [inhibitor, partial curve, poor fit]"
19,CCN(CC(=O)N1CCCCCC1)S(=O)(=O)c1ccc(Cl)cc1,inactive
20,N#Cc1cccc(NC(=O)Cn2c3[n+](c4ccc(C(F)(F)F)cc42)CCCCC3)c1,active: 0.828 µM
21,Cc1noc(C)c1COc1ccc(C(=O)Nc2cccnc2)cc1,"inconclusive: 11.7 µM [inhibitor, single point]"
22,O=C(NC1CCN(S(=O)(=O)c2ccccc2)CC1)c1ccccc1,active: 14.7 µM
23,CC(=O)NC1Sc2ccccc2N=C1c1ccccc1 (stereo not drawn),"inconclusive: 13.1 µM [inhibitor, single point]"

row,SMILES,Potency
1,Cc1c(C(=O)N2CCN(c3ncccn3)CC2)oc2ccc(Cl)cc12,inactive
2,COc1cc(/C=N/N=C2/SCC(=O)N2c2ccc(O)cc2)ccc1O,"inconclusive: 10.4 µM [inhibitor, single point]"
3,Cc1ccc2oc(C(=O)N3CCC(N4CCSCC4)CC3)c(C)c2c1,"inconclusive: 11.7 µM [inhibitor, single point]"
4,CCN1CCN(Cc2ccc(NC(=O)c3ccc(C)c(NC(=O)c4cccc5[nH]ccc45)c3)cc2C(F)(F)F)CC1,active: 10.4 µM
5,CCOc1cc(C(=O)NCc2ccc(F)cc2)ccc1OCC(=O)N1CCCCC1,"inconclusive: 18.5 µM [inhibitor, single point]"
6,COc1ccc(C(=O)CSc2nnc3ccccn23)cc1OC,"inconclusive: 18.5 µM [inhibitor, single point]"
7,CCCn1c(-c2ccc[nH]c2=O)nc2ccccc21,"inconclusive: 1.04 µM [inhibitor, partial curve, poor fit]"
8,CCOCCc1c(O)nc(SCC)[nH]c1=O,"inconclusive: 8.28 µM [inhibitor, partial curve]"
9,Cc1nn(Cc2ccccc2)c(C)c1CNC(=O)[C@H](C)N=C1NS(=O)(=O)c2ccccc21,inactive
10,CCC(C)[C@H](NC(=O)[C@H](Cc1ccccc1)n1c(=O)[nH]c2ccccc2c1=O)C(=O)N1CCC(C(=O)O)CC1 (stereo partly drawn),"inconclusive: 18.5 µM [inhibitor, single point]"
11,C#CCOc1nc2c(c(=O)n(C)c(=O)n2C)n1Cc1ccccc1,inactive
12,CC(Oc1ccccc1C(N)=O)C(=O)Nc1ccc(S(=O)(=O)N2CCCC2)cc1 (stereo not drawn),"inconclusive: 10.4 µM [inhibitor, single point]"
13,CCc1cccc(CC)c1NC(=O)COC(=O)c1cccc(S(=O)(=O)N2CCc3ccccc3C2)c1,inactive
14,CCOC(=O)N1CCC(NC(=O)c2cc(S(=O)(=O)N3CCCCC3)ccc2F)CC1,"inconclusive: 4.15 µM [inhibitor, single point]"
15,Cc1cc(N2CCN(C(=O)c3ccco3)CC2)nc(-c2ccccc2)n1,inactive
16,Cc1ccc(CNC(=O)c2ccc(NC(=O)C3=CSCCO3)cc2)cc1,inactive
17,N#Cc1ccccc1NC(=O)CSc1nccn1CCc1ccccc1,inactive
18,CCN1CCN(C(c2ccc(OC)cc2)c2nnnn2Cc2ccc3c(c2)OCO3)CC1 (stereo not drawn),"inconclusive: 4.15 µM [inhibitor, partial curve]"
19,CSCCC(NC(=O)c1ccc([N+](=O)[O-])cc1Cl)C(=O)OC1CCCCC1=O (stereo not drawn),inactive
20,CN(C)/C=N/c1sc2c(c1C(N)=O)CCCC2,inactive
21,O=C(CSCc1ccc(Br)cc1)N1CCCC1,"inconclusive: 18.5 µM [inhibitor, single point]"
22,O=C(CNC(=O)c1ccc(Cl)cc1)NCCCn1ccnc1,"inconclusive: 16.5 µM [inhibitor, single point]"
